Laboratory results reported in publication PMC2935968.
Substitutions are numbered along the chain they refer to. In names and notes the source's numbering stands. These are yes or no findings as the source states them, for the method shown. Binding can be weak; no strength is given. For some assays here: Tags and fused reporters may be left off the sequences shown. For some assays here: In cells and extracts the contact can be indirect.

Key:
GST-Sgt1 (Arabidopsis) [1] = experiment: pull-down; GST-Sgt1 as bait, Hsp90 and a Rar1 construct or mutant both present; both purified
GST-Sgt1 (Arabidopsis) [2] = experiment: pull-down; GST-Sgt1 as bait in a wheat-germ cell-free lysate with Hsp90 and Myc-N, Rar1 P38L or K45E present; only the target purified
GST-Sgt1 (Arabidopsis) [3] = experiment: pull-down; GST-Sgt1 as bait in a wheat-germ cell-free lysate with Hsp90 and Myc-N, wild-type Rar1 present; only the target purified
GST-Sgt1 (Arabidopsis) [4] = experiment: pull-down; GST-Sgt1 as bait in a wheat-germ cell-free lysate with Hsp90 and Myc-N, truncated Rar1 mutants lacking the CHORDI domain present; only the target purified
[5] = target: Sgt1 (coprecipitation assay of Figure 3C); experiment: co-IP; coprecipitation assays (Figure 3C); taken as the in vivo analysis: formaldehyde-cross-linked Agrobacterium-infiltrated N. benthamiana leaves, α-myc (9E10) agarose beads, blots with α-HA and α-Myc; the paper does not tie the method to the figure

B1: Rar1 (wild type, not GST-tagged) (protein, UniProt Q9SE33 1-226)
chain: MEVGSATKKLQCQRIGCNAMFTDDDNPQGSCQFHASGPFFHDGMKEWSCCKQRSHDFSLFLEIPGCKTGKHTTEKPVLAKSVPKHPVAAPTSSPDANAATKDSCSRCRQGFFCSDHGSQPKEQIKQTLNTPGQAEEEKIEPLAPPVQKAVIDINQPQVCKNKGCGQTFKERDNHETACSHHPGPAVFHDRLRGWKCCDVHVKEFDEFMEIPPCTKGWHSSSPDPAV
In the case of B1, the binding (GST-Sgt1 (Arabidopsis) [1]) is reported as “binds”.

B2: Rar1 P38L (prey of GST-Sgt1) (protein, UniProt Q9SE33 1-226)
chain: B1 chain with P38L
For B2, the binding (GST-Sgt1 (Arabidopsis) [1]) was “binds”.

B3: Rar1 K45E (prey of GST-Sgt1) (protein, UniProt Q9SE33 1-226)
chain: B1 chain with K45E
For B3, the binding (GST-Sgt1 (Arabidopsis) [1]) was “binds”.

B4: CHORDII domain of cress (Arabidopsis thaliana) Rar1 (domain or fragment, UniProt Q9SE33 149-221)
chain: AVIDINQPQVCKNKGCGQTFKERDNHETACSHHPGPAVFHDRLRGWKCCDVHVKEFDEFMEIPPCTKGWHSSS
In the case of B4, the binding (GST-Sgt1 (Arabidopsis) [1]) is reported as “binds”.

B5: Myc-tagged disease resistance protein N (from Nicotiana tabaccum) (receptor, UniProt Q40392 1-1144)
chain: MASSSSSSRWSYDVFLSFRGEDTRKTFTSHLYEVLNDKGIKTFQDDKRLEYGATIPGELCKAIEESQFAIVVFSENYATSRWCLNELVKIMECKTRFKQTVIPIFYDVDPSHVRNQKESFAKAFEEHETKYKDDVEGIQRWRIALNEAANLKGSCDNRDKTDADCIRQIVDQISSKLCKISLSYLQNIVGIDTHLEKIESLLEIGINGVRIMGIWGMGGVGKTTIARAIFDTLLGRMDSSYQFDGACFLKDIKENKRGMHSLQNALLSELLREKANYNNEEDGKHQMASRLRSKKVLIVLDDIDNKDHYLEYLAGDLDWFGNGSRIIITTRDKHLIEKNDIIYEVTALPDHESIQLFKQHAFGKEVPNENFEKLSLEVVNYAKGLPLALKVWGSLLHNLRLTEWKSAIEHMKNNSYSGIIDKLKISYDGLEPKQQEMFLDIACFLRGEEKDYILQILESCHIGAEYGLRILIDKSLVFISEYNQVQMHDLIQDMGKYIVNFQKDPGERSRLWLAKEVEEVMSNNTGTMAMEAIWVSSYSSTLRFSNQAVKNMKRLRVFNMGRSSTHYAIDYLPNNLRCFVCTNYPWESFPSTFELKMLVHLQLRHNSLRHLWTETKHLPSLRRIDLSWSKRLTRTPDFTGMPNLEYVNLYQCSNLEEVHHSLGCCSKVIGLYLNDCKSLKRFPCVNVESLEYLGLRSCDSLEKLPEIYGRMKPEIQIHMQGSGIRELPSSIFQYKTHVTKLLLWNMKNLVALPSSICRLKSLVSLSVSGCSKLESLPEEIGDLDNLRVFDASDTLILRPPSSIIRLNKLIILMFRGFKDGVHFEFPPVAEGLHSLEYLNLSYCNLIDGGLPEEIGSLSSLKKLDLSRNNFEHLPSSIAQLGALQSLDLKDCQRLTQLPELPPELNELHVDCHMALKFIHYLVTKRKKLHRVKLDDAHNDTMYNLFAYTMFQNISSMRHDISASDSLSLTVFTGQPYPEKIPSWFHHQGWDSSVSVNLPENWYIPDKFLGFAVCYSRSLIDTTAHLIPVCDDKMSRMTQKLALSECDTESSNYSEWDIHFFFVPFAGLWDTSKANGKTPNDYGIIRLSFSGEEKMYGLRLLYKEGPEVNALLQMRENSNEPTEHSTGIRRTQYNNRTSFYELING
For B5, the binding (GST-Sgt1 (Arabidopsis) [2]) was “binds”, the binding (GST-Sgt1 (Arabidopsis) [3]) was “binds” and the binding (GST-Sgt1 (Arabidopsis) [4]) was “binds”.

B6: Rar1 (wild type, coprecipitation assay of Figure 3C) (protein, UniProt Q9SE33 1-226)
chain: B1 chain
For B6, the binding [5] was “binds”.

B7: Rar1 I153Q (prey of GST-Sgt1) (protein, UniProt Q9SE33 1-226)
chain: B1 chain with I153Q
With B7 the binding (GST-Sgt1 (Arabidopsis) [1]) was “no binding”.

B8: Rar1 E170K (prey of GST-Sgt1) (protein, UniProt Q9SE33 1-226)
chain: B1 chain with E170K
For B8, the binding (GST-Sgt1 (Arabidopsis) [1]) was “no binding”.

B9: Rar1 W217T (prey of GST-Sgt1) (protein, UniProt Q9SE33 1-226)
chain: B1 chain with W217T
With B9 the binding (GST-Sgt1 (Arabidopsis) [1]) was “no binding”.
